From article PMC8197790
Results are given in words; binding and its absence hold for the method and conditions named. In cells and extracts the contact can be indirect. Some entries that bind do so weakly or less than the wild type.

Sequences of proteins named here, by UniProt entry; tags and fusion partners are left off.
UniProt Q9R0A1: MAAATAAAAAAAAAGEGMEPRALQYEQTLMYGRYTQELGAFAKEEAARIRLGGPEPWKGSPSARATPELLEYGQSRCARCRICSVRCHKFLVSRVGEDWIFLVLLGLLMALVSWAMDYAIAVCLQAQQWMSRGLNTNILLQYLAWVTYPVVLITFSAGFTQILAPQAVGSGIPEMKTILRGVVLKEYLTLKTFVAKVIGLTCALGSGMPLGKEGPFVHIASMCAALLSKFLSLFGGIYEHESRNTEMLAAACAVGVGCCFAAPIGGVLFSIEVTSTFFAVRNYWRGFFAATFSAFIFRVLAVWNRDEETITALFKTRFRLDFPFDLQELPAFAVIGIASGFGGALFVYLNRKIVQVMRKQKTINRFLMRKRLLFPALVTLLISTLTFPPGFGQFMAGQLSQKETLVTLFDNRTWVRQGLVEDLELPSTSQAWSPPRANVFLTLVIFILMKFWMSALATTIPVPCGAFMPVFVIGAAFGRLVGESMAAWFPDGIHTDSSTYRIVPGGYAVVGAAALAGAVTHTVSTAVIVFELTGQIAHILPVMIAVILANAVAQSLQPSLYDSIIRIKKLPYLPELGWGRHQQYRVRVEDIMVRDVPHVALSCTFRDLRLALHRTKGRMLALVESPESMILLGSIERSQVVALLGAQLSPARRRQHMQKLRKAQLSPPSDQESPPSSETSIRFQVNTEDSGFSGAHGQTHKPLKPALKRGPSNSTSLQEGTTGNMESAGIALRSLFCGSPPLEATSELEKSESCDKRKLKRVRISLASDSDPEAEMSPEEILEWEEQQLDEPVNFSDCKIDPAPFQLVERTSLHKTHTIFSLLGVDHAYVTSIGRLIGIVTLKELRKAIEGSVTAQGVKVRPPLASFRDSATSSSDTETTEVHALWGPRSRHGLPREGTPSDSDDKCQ
UniProt O35465: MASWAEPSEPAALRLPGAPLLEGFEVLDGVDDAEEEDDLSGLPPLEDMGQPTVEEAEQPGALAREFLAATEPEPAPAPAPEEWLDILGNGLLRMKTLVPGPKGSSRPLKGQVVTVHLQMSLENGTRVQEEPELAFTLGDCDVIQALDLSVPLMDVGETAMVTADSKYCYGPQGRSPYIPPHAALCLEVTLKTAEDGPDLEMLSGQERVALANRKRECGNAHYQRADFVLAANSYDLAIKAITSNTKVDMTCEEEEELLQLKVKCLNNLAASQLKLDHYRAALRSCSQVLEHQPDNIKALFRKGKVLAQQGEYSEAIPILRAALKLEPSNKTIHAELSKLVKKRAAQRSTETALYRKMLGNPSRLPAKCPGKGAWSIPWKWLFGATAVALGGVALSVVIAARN
UniProt Q8BK64: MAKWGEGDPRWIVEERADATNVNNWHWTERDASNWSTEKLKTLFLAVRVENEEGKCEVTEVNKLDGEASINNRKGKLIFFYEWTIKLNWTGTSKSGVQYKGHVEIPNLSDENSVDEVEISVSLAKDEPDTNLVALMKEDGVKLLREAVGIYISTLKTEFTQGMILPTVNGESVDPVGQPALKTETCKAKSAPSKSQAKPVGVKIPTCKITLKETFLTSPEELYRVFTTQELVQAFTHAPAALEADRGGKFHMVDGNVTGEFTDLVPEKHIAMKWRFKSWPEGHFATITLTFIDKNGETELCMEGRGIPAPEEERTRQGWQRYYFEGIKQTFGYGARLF

Target: ClC-2 chloride channel (endogenous, mouse testes) (mouse (endogenous in mouse testes)) (UniProt Q9R0A1)
Experiment: co-IP; mouse testis lysates (T-PER reagent) incubated 16 h at 4 °C with protein G sepharose beads pre-coated with rabbit anti-ClC-2 antibody or rabbit IgG; washed in 100 mM NaCl buffer pH 7.5 with and without 0.1% Triton X-100; immunoblot for the chaperones/co-chaperones

FK506-binding protein 8 (endogenous, mouse testes) (from UniProt O35465 1-402)
binding: binds

Hsp70/Hsp90 organizing protein (endogenous, mouse testes) (from UniProt Q60864 1-543)
binding: binds

activator of Hsp90 ATPase homolog 1 (endogenous, mouse testes) (from UniProt Q8BK64 1-338)
binding: binds
